In all, about 52,000 sequences went through this assay and about 210 (0.4%) were called active.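 The calls were made as follows: active = gene whose silencing raises cell survival under the drug, median off-target-corrected z-score across its silencing RNAs 2 or more; inactive = the rest.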 Some of the results follow.
Assay: Resistance to Poly (ADP-Ribose) Polymerase inhibitor: Gene Identification via Genome-wide siRNA Screen
Settings: mouse BRCA2 R2336H ES cells, olaparib, CellTiter-Glo viability; active compounds read high
Procedure, shortened: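 Mouse BRCA2 R2336H ES cells were reverse-transfected with siRNA (20 nM final), treated at 48 h with 500 nM olaparib, and read by CellTiter-Glo after 72 h. Scores: MAD-based z per siRNA, median per gene, seed off-target correction.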

Sequence	z-score
GGCGGAGAAGGAGAUUUUATT against Cldn10	inactive: 1.42
GGAGUCUUGCUCUAUAUAATT against Arpc5	inactive: 0.704
GGUGGUGUACAACAGAGUUTT against Ust	inactive: -0.448
GGAACCAACCAGGAGAAAUTT against Ms4a4d	inactive: -0.289
GGCAAUCCUGUCCAACAAGTT against Hydin	inactive: 0.941
GCCAUGGUUAUUAAGCUGGTT against Olfr608	inactive: -0.319
GGCUUAAUUACACAUGUUCTT against Il6	inactive: 1.17
CAACCCUGUAAGGUUGAUUTT against Oog3	inactive: 0.371
GCGUUUCACGUACCUUCCUTT against Nfatc1	inactive: 0.178
GCACUAGCAAUUUUUCUUUTT against Tram1	inactive: 0.263
GGACUUCAAAACAGAUCUGTT against H3f3a	inactive: -1.18
GGCGAACAAUUCCCUCAUUTT against Nos1	inactive: 1.27
GGCAAAUUUAUUUCAGGAATT against 1300019C06Rik	inactive: 1.42
GCGUAUAGUUUCGAGAAAUTT against BC004636	inactive: -0.677
GGAGGUGAACAGAUCUCACTT against D3Ertd330e	inactive: -0.602
GGAGUCAUGCUCAUUUUGCTT against A430070M19	inactive: -0.195
GAAAAGAGGAUUCCUUGCATT against Olfr1128	inactive: -0.0904
GGCAGGAUAUAACCAUCCUTT against AW125441	inactive: 0.0809
GGUUUAUCCAGGAAGUAUATT against Ptch1	inactive: -0.597
GGAUGAAAGAAAAGAAACUTT against Hoxd11	inactive: -0.656
CCAGCAAAUGCAGCACAUCTT against V1rd16	inactive: -0.828
GGCAUCAGUUCCACAACUCTT against 8230402K04Rik	inactive: 1.28
GGUAGAAAAACAAUACCGGTT against 1200009F10Rik	inactive: -0.569
GGCAAGGAUUUUUCUACCUTT against Tslp	inactive: 0.287
GGCAGCAAGAAAAAGAUUCTT against Sfpi1	inactive: -0.596
UUUUGCACAGACCAGGGAGTT against Aspscr1	inactive: 0.361
GGACUCCAAGGACAAACUGTT against Wdrx1	inactive: -0.0449
GGACAGUGUAGUCAAAAAATT against Cx3cr1	inactive: 0.0477
CGACUGUCGUUUGUUGAUGTT against 4933401I19Rik	inactive: -0.646

Shown as labelled records: entries from further up
GGUAGAAAAACAAUACCGGTT against 1200009F10Rik
  z-score: inactive: -0.569
GGCAAGGAUUUUUCUACCUTT against Tslp
  z-score: inactive: 0.287

From PubChem BioAssay AID1347423 (Functional Genomics Laboratory (NCATS/FGL), 2020)
